Some results were stated once for a whole list of compounds, not compound by compound. Square brackets hold non-standard residues; d marks the D form. Peptide text beside a SMILES is read from it. NMePhe(4-Br) = CN[C@@H](Cc1ccc(Br)cc1)C(=O)O; Phe(4-Br) = N[C@@H](Cc1ccc(Br)cc1)C(=O)O; NMeF = CN[C@@H](Cc1ccccc1)C(=O)O; NMeL = CN[C@@H](CC(C)C)C(=O)O; Aib = CC(C)(N)C(=O)O
What was measured:
[1] = system: AsPC-1 human pancreatic cancer cells; experiment: DNA synthesis by [methyl-3H] thymidine incorporation, AsPC-1; format: cell-based; settings: AsPC-1, 10 μM, 24 hr
Protocol: Given the results of the preceding example, several compounds of this invention were tested against human pancreatic cancer cell lines. Two cancer cell lines were selected: S2-013 (well-differentiated) and AsPC-1 (poorly differentiated). These cell lines were purchased from American Type Culture Collection (Manassas, Va.). Both cell lines were grown in DMEM and plated as monolayers in the medium supplemented with 10% fetal bovine serum in a humidified atmosphere of […] and 5% CO2 at 37° C. The cells were regularly seeded into 75 cm^2 flasks with media changes every second or third day. For experiments, cells were grown to 70% confluence, digested with trypsin-EDTA, and plated in either 6-, 24-, or 48-well plates.
DNA Synthesis by [methyl-^3H] Thymidine Incorporation. Cells were plated in 24-well plates at a concentration of 50,000 cells/well. After reaching 50% confluence, they were incubated in serum-free medium for 24 hours, which was then replaced with fresh serum-free medium with or without treatment with 10 μM of each of cyclic peptides 1-1k (#'s 1-12 in FIG. 5), sansalvamide A (#13 in FIG. 5) and scytalidamide A (#14 in FIG. 5). After the required period of culture, cellular DNA synthesis was assayed by adding 0.5 Ci ^3H-methyl thymidine/well and incubating cells for another 6 hours. The cells were then washed twice with PBS, fixed with 10% trichloroacetic acid, and solubilized by adding 250 μl of 0.4 M NaOH to each well. Radioactivity, indicating incorporation of ^3H-methyl thymidine into DNA, was measured by adding scintillation cocktail and counting on a scintillation counter (LKB RackBeta; Wallac, Turku, Finland).
Statistical Analysis. Data were analyzed by ANOVA with Dunnett's or Bonferoni's corrections for multiple comparisons, as appropriate. This analysis was performed with the Prism software package (GraphPad, San Diego, Calif.). Data were expressed as mean±SEM.

[2] = system: S2-013 human pancreatic cancer cells; experiment: DNA synthesis by [methyl-3H] thymidine incorporation, S2-013; format: cell-based; settings: S2-013, 10 μM, 24 hr

Compound | inhibition of thymidine incorporation [1] | inhibition of thymidine incorporation [2]
CC(C)C[C@@H]1NC(=O)[C@H](C(C)C)NC(=O)[C@H](CC(C)C)NC(=O)[C@H](CC(C)C)N(C)C(=O)[C@H](Cc2ccc(Br)cc2)NC1=O [Compound 1c] (cyclo([Phe(4-Br)][NMeL]LVL)) | greater than 50% | greater than 50%
CC(C)C[C@@H]1NC(=O)[C@H](Cc2ccccc2)NC(=O)[C@H](Cc2ccccc2)N(C)C(=O)[C@H](Cc2ccccc2)NC(=O)C(C)(C)NC(=O)[C@H](CC(C)C)N(C)C(=O)[C@@H]2CCCN2C1=O [Scytalidamide A, reference compound] (cyclo(F[NMeF]FLP[NMeL][Aib])) | greater than 50% | greater than 50%
CC(C)C[C@@H]1NC(=O)[C@H](CC(C)C)NC(=O)[C@H](Cc2ccc(Br)cc2)N(C)C(=O)[C@H](CC(C)C)NC(=O)[C@H](C(C)C)NC1=O [Compound 1k] (cyclo([NMePhe(4-Br)]LLVL)) | greater than 50% | greater than 50%
CC(C)C[C@@H]1NC(=O)[C@H](Cc2ccc(Br)cc2)NC(=O)[C@H](CC(C)C)N(C)C(=O)[C@H](C(C)C)NC(=O)[C@H](CC(C)C)NC1=O [Compound 1i] (cyclo([Phe(4-Br)]LLV[NMeL])) | greater than 50% | greater than 50%
CC(C)C[C@@H]1NC(=O)[C@H](Cc2ccccc2)NC(=O)[C@H](CC(C)C)NC(=O)[C@H](C(C)C)NC(=O)[C@H](CC(C)C)NC1=O [Compound 1, sansalvamide A peptide] (cyclo(FLLVL)) | greater than 50% | greater than 50%

— patent US7709443B2, “Cyclic peptide antitumor agents” (Northwestern University, priority 2003, dated 2010)
